Results: patent US20150230430A1 (University of Pennsylvania, published 2015)
These are yes or no findings as the source states them, for the method shown. Some entries that bind do so weakly or less than the wild type. Where a sequence is shown, tags or fusion partners need not be part of it.

Legend:
[1] = biological target: T1, Gonadotropin Releasing Hormone (GnRH) peptide (mammalian (same amino acid sequence in all mammals)); experiment: GnRH ELISA (refers back to the preceding experiment)
T1 sequence (peptide, N-terminal pyroglutamic acid (pGlu); C-terminal amide (GlyNH2)): EHWSYGLRPG

[2] = biological target: T1, Gonadotropin Releasing Hormone (GnRH) peptide (mammalian (same amino acid sequence in all mammals)); experiment: ELISA on plate-coated GnRH peptide, detection with anti-human IgG1

B1: chimeric anti-GnRH antibody (murine variable regions of hybridoma USASK/DSIL-LHRH-A1, ATCC HB-9094, fused with human IgG1 heavy chain and kappa light chain … (antibody, V domains shown)
VH: QIQLVQSGPELKKPGETVKISCKASGYPFTNYGMNWVKQAPGKGLKWMGWINTYTGEPACADDFRGRFAISLETSARTAYLQINNLINEDTATYFCARTGGGRYNYGMDYWGQGTSVTVSS
VL: QIVLTQSPAIMSASPGEKVTITCSATSSVSYIHWFQQKPGTSPKLWIYSTSNLASGVPVRFSGSGSGTSYSLTISRMEAEDAATYYCQQRSSYPPTFGGGTKLEIKR
notes: Full-length chimeric heavy and light chains: murine variable regions on human IgG1 and human kappa constant domains; Tested as filtered supernatant of transiently transfected 293 HEK cells; also called chimeric GnRH antibody; chimeric antibody
With B1 the binding [1] was “binds” and the binding [2] was “binds”.
